This is an account of results in article PMC5056459, “Antagonistic roles of Drosophila Tctp and Brahma in chromatin remodelling and stabilizing repeated sequences” (Nature Communications, 2016).

Amino acid sequences for entries named in this document (tags omitted).
UniProt P25439: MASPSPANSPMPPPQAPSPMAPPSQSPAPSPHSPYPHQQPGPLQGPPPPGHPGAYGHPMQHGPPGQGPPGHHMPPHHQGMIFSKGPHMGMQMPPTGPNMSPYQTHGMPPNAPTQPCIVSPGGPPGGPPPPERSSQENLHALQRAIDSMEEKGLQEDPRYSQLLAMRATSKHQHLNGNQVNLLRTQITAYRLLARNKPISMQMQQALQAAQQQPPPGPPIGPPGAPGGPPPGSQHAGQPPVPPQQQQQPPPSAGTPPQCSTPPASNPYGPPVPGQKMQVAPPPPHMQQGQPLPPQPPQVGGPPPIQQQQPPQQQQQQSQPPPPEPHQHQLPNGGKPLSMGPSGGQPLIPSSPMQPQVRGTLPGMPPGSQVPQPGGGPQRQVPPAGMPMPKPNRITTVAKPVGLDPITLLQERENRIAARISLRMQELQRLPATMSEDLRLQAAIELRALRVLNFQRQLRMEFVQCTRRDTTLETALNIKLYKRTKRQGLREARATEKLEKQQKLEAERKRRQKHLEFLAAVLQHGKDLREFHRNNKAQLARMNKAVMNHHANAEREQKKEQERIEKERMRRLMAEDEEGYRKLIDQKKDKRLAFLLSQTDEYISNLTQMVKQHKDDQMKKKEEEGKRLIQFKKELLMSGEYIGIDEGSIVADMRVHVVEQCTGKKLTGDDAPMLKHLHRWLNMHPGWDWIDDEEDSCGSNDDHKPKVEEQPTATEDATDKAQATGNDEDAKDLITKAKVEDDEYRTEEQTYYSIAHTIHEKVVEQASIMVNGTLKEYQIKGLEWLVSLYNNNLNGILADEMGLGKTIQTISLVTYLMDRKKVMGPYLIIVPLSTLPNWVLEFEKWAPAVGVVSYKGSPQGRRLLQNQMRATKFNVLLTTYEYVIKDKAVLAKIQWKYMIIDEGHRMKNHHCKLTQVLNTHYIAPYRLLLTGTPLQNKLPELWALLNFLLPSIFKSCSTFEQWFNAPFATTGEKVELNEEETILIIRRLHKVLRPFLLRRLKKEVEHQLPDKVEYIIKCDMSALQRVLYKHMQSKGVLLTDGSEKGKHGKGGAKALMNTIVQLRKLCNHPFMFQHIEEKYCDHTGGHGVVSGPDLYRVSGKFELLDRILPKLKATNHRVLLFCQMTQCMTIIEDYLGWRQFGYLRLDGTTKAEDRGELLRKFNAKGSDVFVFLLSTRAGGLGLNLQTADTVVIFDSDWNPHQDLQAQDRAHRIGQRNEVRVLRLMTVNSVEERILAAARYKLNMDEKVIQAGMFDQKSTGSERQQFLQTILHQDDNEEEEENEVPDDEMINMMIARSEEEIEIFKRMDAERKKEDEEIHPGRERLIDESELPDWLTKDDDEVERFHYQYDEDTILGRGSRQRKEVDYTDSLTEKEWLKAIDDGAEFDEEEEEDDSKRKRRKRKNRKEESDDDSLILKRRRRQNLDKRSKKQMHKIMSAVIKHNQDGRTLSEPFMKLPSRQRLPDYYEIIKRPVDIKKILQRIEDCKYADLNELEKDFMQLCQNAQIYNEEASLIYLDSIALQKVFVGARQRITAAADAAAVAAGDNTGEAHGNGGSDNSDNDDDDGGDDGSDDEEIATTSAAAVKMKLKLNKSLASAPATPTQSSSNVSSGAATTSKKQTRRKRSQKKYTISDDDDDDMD

One assay has as its target T1, 2xMYC-Tctp (Drosophila) (UniProt Q9VGS2).
T1 sequence: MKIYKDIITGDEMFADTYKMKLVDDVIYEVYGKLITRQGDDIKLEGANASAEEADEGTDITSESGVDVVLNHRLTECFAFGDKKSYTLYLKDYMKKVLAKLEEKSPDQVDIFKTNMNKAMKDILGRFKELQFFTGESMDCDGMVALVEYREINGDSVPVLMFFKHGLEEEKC
Put plainly: co-IP; nuclear extract of transfected S2 cells, treated with benzonase 100 U per ml for 1 h in IP buffer (20 mM HEPES pH 7.4, 80 mM KCl, 0.2% NP-40); IP with anti-MYC, anti-FLAG or anti-Pol-II at 4 °C for 2 h; western blot; for ARP4/Act (Fig. 2a) cells with or without Tctp knock-down by dsRNA. (In general: Immunoblotting shows a protein as a band on a membrane.)

In assay [1] the target is 2xFLAG-tagged full-length wild-type Brm (Brm^WT) (Drosophila) (UniProt P25439). The description is as above.

These are yes or no findings as the source states them, for the method shown. Binding seen in cells or lysates may run through a third protein. Some entries that bind do so weakly or less than the wild type. Tags and fused reporters may be left off the sequences shown.

Consider “2xFLAG-tagged full-length wild-type Brm (Brm^WT) (from UniProt P25439 1-1638) (enzyme)”, for which the binding result in the assay with 2xMYC-Tctp (Drosophila) is “binds”.

B1: ARP4-V5 (protein, UniProt Q7K012 1-425)
chain: MSGGTMLYGGDEIGALVFDPGHHSLRVGYAQEDSPKAEIPSVVGIGAAPETNLDPETKTDNNATPNNADQRKFYVDTNYVTVPRSNMEVQTYMKDGMIDNWDLFEKVIDYAYANVIQSEPEYHPVLFSEASWNVRNNREKLTELMFEKYNVPAFFLVKNAVLAAFSSGRATALVVDSGATHTSAVPVHEGYVLSQAVVKSPLGGDFLSRQCRQHLEKHGIDLSPVYKIASKDVVKERDNGRFTLRKLPENLTQSWQNYMLQLMMQDFQMNVLQVLENPFDERVAAQIPTVHYEFPNGYHQDFGSERFKIAESLFDNAMLGAGQLASTSVGMCDADVRLSLFGSVVVTGGNTLLQGFPERLNRDLQLRAPSNTRLKMISANGSVERRFGAWIGGSILASIGTFQQMWISSQEYEEAGKSQVERKCP
With B1, the binding result in assay [1] is given as “binds”.

B2: MBP-Tctp (natural protein, Drosophila, UniProt Q9VGS2 1-172, looked up)
chain: MKIYKDIITGDEMFADTYKMKLVDDVIYEVYGKLITRQGDDIKLEGANASAEEADEGTDITSESGVDVVLNHRLTECFAFGDKKSYTLYLKDYMKKVLAKLEEKSPDQVDIFKTNMNKAMKDILGRFKELQFFTGESMDCDGMVALVEYREINGDSVPVLMFFKHGLEEEKC
notes: Drosophila Tctp in pMAL-c2; also called MBP-tagged Tctp; source: E. coli Rosetta2, extracted and dialysed
Regarding B2, the binding result in assay [1] is reported as “binds”.
